PubChem BioAssay AID1159578 – Peter MacCallum Cancer Centre | 2015

- Assay: 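Genome-wide hunt for genes controlling movement of lymphatic endothelial cells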 (primary screen)
- Cell system: human lymphatic endothelial cells
- Knock-down reagent: siRNA pool against human genes, 40 nM
- Timing: 48 h after transfection
- Read-out: 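High-content imaging of dye-stained cells in a scratch assay measures filled wound area and nuclei per well; duplicate means given as ratio to mock and robust z-score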
- Direction: migration robust z-score: higher = faster migration into the scratch; nuclei per well: higher = more cells in the well
- Call rule: 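Migration changed when robust z exceeds 2 or falls below -2 and mean nuclei number is at least 3300; otherwise not called changed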
- Calls: active = migration changed; inactive = no migration change, or too few cells
Shown is one part, drawn at random, of about 18,000 reagents. About 1,030 of all reagents (5.7%) were called active. 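Inactive calls also include pools with fewer than 3300 nuclei, whose migration was not assessed.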 Raw values are not corrected between plates. A number with no mark means an inactive call. Not all columns of the deposit are shown. Reagent sequences are not shown.

{"gene symbol": "H4C4 (GeneID 8360)", "migration robust z-score": -0.01, "nuclei per well, duplicate mean": 5960}
{"gene symbol": "CLDN17 (GeneID 26285)", "migration robust z-score": 1.75, "nuclei per well, duplicate mean": 6599}
{"gene symbol": "MTFR1L (GeneID 56181)", "migration robust z-score": 0.82, "nuclei per well, duplicate mean": 5722}
{"gene symbol": "SUSD1 (GeneID 64420)", "migration robust z-score": 0.38, "nuclei per well, duplicate mean": 3906}
{"gene symbol": "EFCAB6 (GeneID 64800)", "migration robust z-score": 0.51, "nuclei per well, duplicate mean": 5646}
{"gene symbol": "CXorf58 (GeneID 254158)", "migration robust z-score": "2.75 (active)", "nuclei per well, duplicate mean": 7072}
{"gene symbol": "PRTN3 (GeneID 5657)", "migration robust z-score": -2.57, "nuclei per well, duplicate mean": 2204}
{"gene symbol": "RPGR (GeneID 6103)", "migration robust z-score": -0.05, "nuclei per well, duplicate mean": 5486}
{"gene symbol": "PHC2 (GeneID 1912)", "migration robust z-score": -1.9, "nuclei per well, duplicate mean": 3564}
{"gene symbol": "CETP (GeneID 1071)", "migration robust z-score": 1.6, "nuclei per well, duplicate mean": 7010}
{"gene symbol": "PDE6G (GeneID 5148)", "migration robust z-score": 0.42, "nuclei per well, duplicate mean": 4374}
{"gene symbol": "DRAP1 (GeneID 10589)", "migration robust z-score": 0.36, "nuclei per well, duplicate mean": 5088}
{"gene symbol": "YJU2 (GeneID 55702)", "migration robust z-score": -0.54, "nuclei per well, duplicate mean": 6402}
{"gene symbol": "SMYD3 (GeneID 64754)", "migration robust z-score": 0.68, "nuclei per well, duplicate mean": 4330}
{"gene symbol": "CD7 (GeneID 924)", "migration robust z-score": -0.76, "nuclei per well, duplicate mean": 5692}
{"gene symbol": "PLEKHA4 (GeneID 57664)", "migration robust z-score": -1.39, "nuclei per well, duplicate mean": 5832}
{"gene symbol": "DUS3L (GeneID 56931)", "migration robust z-score": -2.02, "nuclei per well, duplicate mean": 1782}
{"gene symbol": "SERHL (GeneID 94009)", "migration robust z-score": 0.21, "nuclei per well, duplicate mean": 5150}
{"gene symbol": "RPL19 (GeneID 6143)", "migration robust z-score": -0.05, "nuclei per well, duplicate mean": 4160}
{"gene symbol": "CT45A5 (GeneID 441521)", "migration robust z-score": 0.66, "nuclei per well, duplicate mean": 6090}
{"gene symbol": "DPY30 (GeneID 84661)", "migration robust z-score": -0.47, "nuclei per well, duplicate mean": 7091}
{"gene symbol": "SURF4 (GeneID 6836)", "migration robust z-score": -1.6, "nuclei per well, duplicate mean": 4931}
{"gene symbol": "HOMER1 (GeneID 9456)", "migration robust z-score": 0.98, "nuclei per well, duplicate mean": 7348}
{"gene symbol": "MUSK (GeneID 4593)", "migration robust z-score": -5.04, "nuclei per well, duplicate mean": 2374}
{"gene symbol": "ZNF785 (GeneID 146540)", "migration robust z-score": "-2.27 (active)", "nuclei per well, duplicate mean": 6212}
{"gene symbol": "RUFY4 (GeneID 285180)", "migration robust z-score": "2.29 (active)", "nuclei per well, duplicate mean": 5956}
{"gene symbol": "TRAF7 (GeneID 84231)", "migration robust z-score": 0.62, "nuclei per well, duplicate mean": 6500}

Hits, among the entries above:
{"gene symbol": "CXorf58 (GeneID 254158)", "migration robust z-score": "2.75 (active)", "nuclei per well, duplicate mean": 7072}
{"gene symbol": "ZNF785 (GeneID 146540)", "migration robust z-score": "-2.27 (active)", "nuclei per well, duplicate mean": 6212}
{"gene symbol": "RUFY4 (GeneID 285180)", "migration robust z-score": "2.29 (active)", "nuclei per well, duplicate mean": 5956}
